# No constants are given. Whether binding was seen depends on the method and setting. Binding seen in cells or lysates may run through a third protein. Binding calls can cover weak binding; strength is not graded here.
# Sequences of proteins named here, by UniProt entry; tags and fusion partners are left off. A change or cut given only in a name is not applied to a line headed by its entry.
# UniProt P25007: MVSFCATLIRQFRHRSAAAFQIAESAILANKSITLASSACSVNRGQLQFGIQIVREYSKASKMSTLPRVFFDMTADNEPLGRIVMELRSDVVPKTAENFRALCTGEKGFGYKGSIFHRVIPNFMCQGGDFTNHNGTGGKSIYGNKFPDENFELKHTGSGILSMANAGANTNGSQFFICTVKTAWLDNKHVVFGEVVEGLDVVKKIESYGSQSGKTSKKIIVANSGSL
# UniProt Q9VQ79: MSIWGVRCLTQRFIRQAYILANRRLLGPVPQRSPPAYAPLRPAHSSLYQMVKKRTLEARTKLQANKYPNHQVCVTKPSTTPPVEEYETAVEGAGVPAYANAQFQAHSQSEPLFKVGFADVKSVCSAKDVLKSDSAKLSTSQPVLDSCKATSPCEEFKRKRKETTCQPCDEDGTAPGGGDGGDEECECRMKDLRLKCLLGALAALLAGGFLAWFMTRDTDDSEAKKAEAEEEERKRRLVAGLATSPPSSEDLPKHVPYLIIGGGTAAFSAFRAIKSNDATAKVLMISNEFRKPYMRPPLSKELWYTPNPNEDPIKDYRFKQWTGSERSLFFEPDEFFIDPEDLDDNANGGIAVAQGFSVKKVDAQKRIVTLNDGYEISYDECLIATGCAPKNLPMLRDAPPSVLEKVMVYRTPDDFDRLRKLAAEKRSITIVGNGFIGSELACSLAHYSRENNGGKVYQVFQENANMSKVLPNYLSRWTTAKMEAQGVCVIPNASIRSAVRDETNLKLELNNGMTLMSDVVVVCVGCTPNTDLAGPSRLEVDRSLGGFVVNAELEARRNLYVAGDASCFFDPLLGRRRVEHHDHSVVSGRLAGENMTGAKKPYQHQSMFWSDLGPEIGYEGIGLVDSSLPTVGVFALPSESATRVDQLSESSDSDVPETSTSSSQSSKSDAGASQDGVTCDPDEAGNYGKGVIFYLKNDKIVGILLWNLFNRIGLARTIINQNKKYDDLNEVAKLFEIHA
# How the values were obtained:
# [1] = biological target: full-length recombinant Twin-Strep-tagged Cyp1 (Cyp1-Twin-Strep) (Drosophila) (UniProt P25007); assay: pull-down; Strep-tag pulldown from lysates of E. coli co-expressing the two proteins; Strep-Tactin Sepharose resin; 50 mM Tris-HCl pH 8, 500 mM NaCl; blots with anti-Strep-tag and anti-GST
# [2] = biological target: FLAG-tagged DNase II (FLAG-DNase II) (Drosophila) (UniProt Q9VED8); assay: pull-down; FLAG-tag pulldown from lysates of E. coli co-expressing the two proteins; Anti-DYKDDDDK G1 affinity resin; lysis in Tris-buffered saline with PMSF and protease inhibitors; blots with anti-FLAG and anti-GST
substance,measurement,setting,value
full-length recombinant glutathione S-transferase-tagged AIF (GST-AIF) (from UniProt Q9VQ79),binding,[1],binds
same,binding,[2],binds

# From article PMC8052343
